Test results from US20150259408A1.
Positions count from the first letter of the chain named. Results are given in words; binding and its absence hold for the method and conditions named. A result given as binding can be weak or reduced; the word gives no strength.

B1: mouse monoclonal antibody 13G10 (antibody, V domains shown)
VH: QVQLQQSGAELARPGASVKLSCKASGYTFTNYGISWVKQRTGQGLEWIGAIYPRSGNTYYNEKFKGKATLTADKSSSTAYMELRSLTSEDSAVYFCARERDYGSSYALDYWGQGTSVTVSS
VL: DIQMTQSSSSFSVSLGDRVTITCKASEDIYNRLAWYQQKPGNAPRLLISGATSLETGVPSRFTGSGSGKDYTLSITSLQTEDVATYYCQQYWSPPRTFGGGTKLEIKR
B2: mouse monoclonal antibody 15F7 (antibody, V domains shown)
VH: QVQLQQSGTELARPGAAVKLSCKASGYTFTSYGLSWVKQRAGQGLEWIGEIFPRSGNTYYNEKFKGKATLTADKSSSTAYMELRSLTSEDSAVYFCARGVRSPGAMDYWGQGTSVTVSS
VL: B1 VL with T63S, P94I, R96Y, K103N
B3: humanized 15F7 variant H1L1 (Hu15F7VHv1/Hu15F7VLv1) (antibody, V domains shown)
VH: B2 VH with Q1E, T9A, L11V, A12K, R13K, A16S, A17S, T87R, S91T, S114L
VL: B1 VL with F11L, V13A, L15V, T63S, S74T, T76S, V83F, P94I, R96Y
B4: humanized 15F7 variant H2L1 (Hu15F7VHv2/Hu15F7VLv1) (antibody, V domains shown)
VH: EVQLQQSGAEVKKPGSSVKLSCKASGYTFTSYGLSWVKQRPGQGLEWIGEIFPRSGNTYYNEKFKGKATITADKSSSTAYMELRSLRSEDTAVYFCARGVRSPGAMDYWGQGTLVTVSS
VL: B1 VL with F11L, V13A, L15V, T63S, S74T, T76S, V83F, P94I, R96Y
B5: chimeric 15F7 (antibody, V domains shown)
VH: B2 VH
VL: B1 VL with T63S, P94I, R96Y, K103N
B6: humanized 15F7 variant H1L2 (Hu15F7VHv1/Hu15F7VLv2) (antibody, V domains shown)
VH: B4 VH with P41A, I70L
VL: DIQMTQSPSSLSASVGDRVTITCKASEDIYNRLAWYQQKPGNAPKLLISGATSLETGVPSRFSGSGSGKDFTLTISSLQPEDFATYYCQQYWSIPYTFGGGTKVEIKR
B7: humanized 15F7 variant H2L2 (Hu15F7VHv2/Hu15F7VLv2) (antibody, V domains shown)
VH: B4 VH
VL: B6 VL

Target: LAMA4 / purified His-LAMA4 (species not stated)
Assay: ForteBio; antibody constant at 100 nM, LAMA4 at 3.125 to 200 nM; raw and fitted lines

Binder	binding
B1	binds
B2	binds

Target: LAMA4 / purified His-LAMA4 (species not stated)
Assay: BLI (ForteBio; antibody at 100 nM, LAMA4 concentration varied) and SPR (Biacore)

Binder	binding
B2	binds

Target: LAMA4 / purified His-LAMA4 (species not stated)
Assay: SPR (Biacore)

Binder	binding
B3	binds
B4	binds

Target: LAMA4 / purified His-LAMA4 (species not stated)
Assay: ForteBio; anti-His sensor loaded with His-LAMA4 at 10 ug/ml, antibody at 5 ug/ml

Binder	binding
B2	binds
B5	binds
B3	binds
B4	binds
B6	binds
B7	binds

Target: LAMA4 / purified His-LAMA4 (species not stated)
Assay: ForteBio; goat anti-human Fc sensor loaded with antibody at 5 ug/ml, His-LAMA4 at 10 ug/ml

Binder	binding
B5	binds
B3	binds
B4	binds
B6	binds
B7	binds

Target: LAMA4 / purified His-LAMA4 (species not stated)
Assay: BLI (ForteBio); anti-His sensor with His-LAMA4 then antibody, and anti-human Fc sensor with antibody then His-LAMA4

Binder	binding
B2	binds
B5	binds
B3	binds
B4	binds
B6	binds
B7	binds
